# From PubChem BioAssay AID1347423 (Functional Genomics Laboratory (NCATS/FGL), 2020)
# In all, about 52,000 sequences went through this assay and about 210 (0.4%) were called active.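 The calls were made as follows: active = gene whose silencing raises cell survival under the drug, median off-target-corrected z-score across its silencing RNAs 2 or more; inactive = the rest.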 The list shows a part of the results.
# Assay: Resistance to Poly (ADP-Ribose) Polymerase inhibitor: Gene Identification via Genome-wide siRNA Screen
# Settings: mouse BRCA2 R2336H ES cells, olaparib, CellTiter-Glo viability; stronger effect = higher value
# Method in brief: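 Mouse BRCA2 R2336H ES cells were reverse-transfected with siRNA (20 nM final), treated at 48 h with 500 nM olaparib, and read by CellTiter-Glo after 72 h. Scores: MAD-based z per siRNA, median per gene, seed off-target correction.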
row,Sequence,z-score
1,GCAAAGUACGCCAAGAUGGTT against Cplx1,inactive: -0.564
2,GGUCGAGAGGUUGAAAGUATT against 6030405P05Rik,inactive: -1.69
3,GCAACUAUGAACAAGAAUCTT against Grm3,inactive: 0.304
4,GGUUAUAGCUUCAAUAGCUTT against Bphl,inactive: 0.448
5,GGUAGAAACGGCUCUAUUATT against Atp6v1b2,inactive: -1.97
6,GGCCCAGUUGAUCAGCUAUTT against AI428936,inactive: -0.0466
7,GGACUACCUACUGAGCAACTT against Disc1,inactive: 1.28
8,GGUGUAAAAUGUAAAGCUGTT against Hpgd,inactive: 2.28
9,GGGAAGAGUCUUGUUUAAATT against Pvrl3,inactive: 0.355
10,GGCUUUGCUGAAUGUCUCATT against G630049C14Rik,inactive: 0.469
11,GGCUCUCUGGAGAAUCAUGTT against Slc25a28,inactive: -0.0865
12,CCCAUAAUGGACUAAAACUTT against Tjp2,inactive: 1.18
13,GGAGACGUGUCAACAUUUUTT against Tob1,inactive: -2.23
14,GGAGCUGGUCUUUUUUUUUTT against Rhobtb2,inactive: 0.54
15,GCUCCUGAUUUUGACUAUCTT against D1Ertd622e,inactive: 0.806
16,GCAGCAGCAGGUGUCUAUGTT against Nanos3,inactive: -0.485
17,GGGUGAAUUCUGUCUAUGUTT against 3732409C05Rik,inactive: -1.2
18,CCAAGUCUAAUGUUUACAATT against BC031853,inactive: 2.29
19,GGCACAUGGCAAUUCAUCATT against 1810018L02Rik,inactive: -0.507
20,GGACAAAUUACAGGAUUAATT against Sod1,inactive: 2.07
21,GGAAGCUGAACGAAAAUAATT against 1200020A08Rik,inactive: -1.55
22,GCGUAUGUACCGAUGGCAGTT against Mocs2,inactive: 1.88
23,GGUCCAAAAGUUGUUUCAATT against Mgea5,inactive: -0.111
24,GCUUUGAUGGAUUCUAAUCTT against Hdh,inactive: 0.178
25,GCCUAGCUAUAUUAAACUCTT against Inpp5e,inactive: 0.493
26,GGUCUAAUCCAGAAUCAGUTT against Ppm1f,inactive: -0.151

row,Sequence,z-score
1,GGUACUGAAGGAAAUCUCUTT against Nek11,inactive: -0.686
2,GGAAUUCUUAGCCAAUGCCTT against 4930500E24Rik,inactive: 0.475
3,GCCCUCCUAUAUCGUAUGGTT against Fbxo12,inactive: 0.827
4,GGUGGAUCAGGAAGUGAACTT against 4832412O06Rik,inactive: -2.51
5,GGCUAUUCAGUAUGCCAGATT against Atm,inactive: -0.262
6,CCGUUUCAUUUCAGGGAGGTT against Phf1,inactive: 0.493
7,GGAAAAAUUCGAGGGACUGTT against Dscr1l1,inactive: 1.66
8,GGUGGACCAUUUCAGGUUCTT against B4galt7,inactive: -0.656
9,GGACCUCAUGGAGCUCCAATT against Tnnt3,inactive: -0.501
10,CGACUAACAAAUUUGGUGATT against Tcfec,inactive: -0.453
11,GGGUUUCUGGAAUACAUUCTT against Mfng,inactive: 0.238
12,GGUCAACUCUAAGAUGCUGTT against 9930012K11Rik,inactive: -0.414
13,CCUACUCGUAUAAUCUUCUTT against Eif2c3,inactive: 0.312
14,GGAAAUUGCUCAGGAGUUUTT against Anxa5,inactive: -2.73
15,CCAAUUGUGAGAAGAGUGUTT against Cog7,inactive: -0.349
16,GAUAUCACGGUCAUCUGUCTT against Pde6h,inactive: 0.288
17,GGAUAAAACAGGACUUCUUTT against Wdr23,inactive: -0.602
18,GGCACCAUCGAGCUGUUAUTT against Osgep,inactive: 0.146
19,GGUCCUAUGCAGAUACCAATT against Gstk1,inactive: 0.458
20,GGGCAAAGGAAAUGGAAUCTT against Eif5,inactive: -0.164
21,GGCCAGUUUUCAGGACAGUTT against Fcgr1,inactive: 0.925
22,GCCCAUGUUUGUGAGGGUUTT against 4931440F15Rik,inactive: -0.44
23,CGAGAUUGUCAGUCUUUCCTT against Rnf110,inactive: 1.38
24,GGCCUUUCACAACAUAAAATT against BC051070,inactive: -0.345
25,GGUCAUUUUAUCUAAUGUCTT against Ctse,inactive: -1.09
26,GGCUUUAGGGAGUUGCUUCTT against 4933428G09Rik,inactive: 0.0449

# Fetched one by one from the entries so far (four):
row,Sequence,z-score
14,GGAAAUUGCUCAGGAGUUUTT against Anxa5,inactive: -2.73
19,GGUCCUAUGCAGAUACCAATT against Gstk1,inactive: 0.458
23,CGAGAUUGUCAGUCUUUCCTT against Rnf110,inactive: 1.38
5,GGCUAUUCAGUAUGCCAGATT against Atm,inactive: -0.262
